## Assay results

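Uptake of anthrax lethal toxin into cultured cells, read by FRET (460/530 nm ratio) and reported from the 460 nm channel; the cell line is not named here.
Each compound was tested as a concentration series from about 0.0005 to 40 µM.
The number is the fitted AC50 of the 460 nm signal alone; lower values mean a more potent effect. A falling signal goes with compounds filed as inhibitors or cytotoxic, a rising one with activators or fluorescent compounds (inferred from the filed classes).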

Values are in nM.
Common to all entries: measured here: 460 nm channel.
This is a side read-out of the assay, for part of the compounds, not drawn at random.
A potency from a partial, single-point or poor curve is only a rough figure.
The first word of each remark tells which way the curve ran; it can be opposite to the aim of the assay.

SMILES: O=C(Cn1c(-c2cncs2)nc2ccccc21)NC1CCCC1
AC50 (nM): 6310
remark: falling, partial curve

SMILES: COc1ccc(N2CCN(S(=O)(=O)c3ccc(Br)s3)CC2)cc1
AC50 (nM): 5012
remark: falling, single point

SMILES: O=c1cnc2cnc(Nc3ccccc3)nc2n1C[C@H]1CCCO1
AC50 (nM): 125.9
remark: falling, single point

SMILES: CCOCCCN1C(=O)CN(C2CCCCC2)C(=O)C1c1ccc(OC)c(OC)c1 (stereo not given)
AC50 (nM): 25.12
remark: rising, full curve

SMILES: COc1cc2[nH]c(=O)n(CCCCCC(=O)N3CCN(c4ccccc4)CC3)c(=O)c2cc1OC
AC50 (nM): 1259
remark: falling, full curve, poor fit

SMILES: O=S1(=O)C=C(Sc2nc3ccccc3s2)c2ccccc21
AC50 (nM): 10000
remark: falling, partial curve

SMILES: CCCCNC(=O)NS(=O)(=O)c1ccc(C)cc1
AC50 (nM): 3981
remark: rising, partial curve

SMILES: CN(C)c1ccc(Cc2ccc(N(C)C)cc2)cc1
AC50 (nM): 15848
remark: falling, partial curve, poor fit

SMILES: O=C(c1cnccn1)N1CCC[C@@]2(CCN(c3ccncc3)C2)C1
AC50 (nM): 5012
remark: rising, single point

SMILES: COc1ccc(N2C(=O)CC(Sc3ncn[nH]3)C2=O)c(OC)c1 (stereo not given)
AC50 (nM): 10000
remark: falling, partial curve

SMILES: OCCN(CCO)c1nc(N2CCCCC2)c2nc(N(CCO)CCO)nc(N3CCCCC3)c2n1
AC50 (nM): 12589
remark: rising, full curve

SMILES: CCOc1c(Cl)cc(C(=O)NCCN2CCCCC2)cc1Cl
AC50 (nM): 31622
remark: falling, single point

SMILES: c1ccc(CNc2nc(-c3ccc4c(c3)OCO4)nc3ccccc23)cc1
AC50 (nM): 19952
remark: falling, single point

SMILES: CCOc1ccc(N(Cc2cc3cc(OC)ccc3[nH]c2=O)S(C)(=O)=O)cc1
AC50 (nM): 7943
remark: falling, partial curve

SMILES: C=CCOn1c(=O)c(C)[n+]([O-])c2ccccc21
AC50 (nM): 10
remark: falling, full curve, poor fit

SMILES: CCC(=O)Nc1ccc(C(=O)Nc2cccnc2)cc1
AC50 (nM): 31622
remark: falling, single point

SMILES: COc1cc(/C=C/C(=O)CC(=O)/C=C/c2ccc(O)c(OC)c2)ccc1O
AC50 (nM): 158.5
remark: falling, full curve, poor fit

SMILES: CN1CC[C@]2(C)c3cc(O)ccc3N(C)[C@@H]12
AC50 (nM): 25118
remark: falling, single point

SMILES: CCCCCOC(=O)c1[nH]c2c(c1C)C(=O)CC(c1ccco1)C2 (stereo not given)
AC50 (nM): 199.5
remark: falling, full curve

SMILES: CCOC(=O)CN(C(=O)CSc1nnc2c(n1)[nH]c1ccc(OC)cc12)c1ccc(F)cc1
AC50 (nM): 12589
remark: rising, single point

SMILES: CC(=O)Nc1ccc(-n2c(C)nc(=O)c(-c3ccccc3)c2C)cc1
AC50 (nM): 3.981
remark: falling, full curve, poor fit

SMILES: N#CCCCC[N+]12CN3CN(CN(C3)C1)C2
AC50 (nM): 3981
remark: falling, single point

SMILES: COc1ccc(S(=O)(=O)Cc2ccc(C(=O)NCCCN(C)c3ccccc3)o2)cc1
AC50 (nM): 10000
remark: rising, partial curve

SMILES: c1ccc(-c2c3ccccc3nc3[nH]c4ccccc4c23)cc1
AC50 (nM): 3981
remark: rising, partial curve

SMILES: CC(C)c1cccc2nc3c(c([Si](C)(C)C(C)(C)C)c12)Cn1c-3cccc1=O
AC50 (nM): 25118
remark: rising, single point

SMILES: CN(C)Cc1cc(C(C)(C)C)cc(CN(C)C)c1O
AC50 (nM): 794.3
remark: falling, single point

SMILES: COc1ccccc1-c1ccc2ncnc(N3CCNCC3)c2c1
AC50 (nM): 3981
remark: falling, single point

SMILES: Cc1ccccc1N1C(=O)CC(N2CCC(C(N)=O)CC2)C1=O (stereo not given)
AC50 (nM): 19952
remark: falling, single point

SMILES: OCc1cc([C@@H](O)CNCCCCCCOCCCCc2ccccc2)ccc1O
AC50 (nM): 25118
remark: falling, partial curve, poor fit

SMILES: c1ccc2c(CSCc3cccc4ccccc34)cccc2c1
AC50 (nM): 1995
remark: falling, partial curve

For reference, 4 entries once more:

| SMILES | AC50 (nM) | remark |
|---|---|---|
| `COc1ccccc1-c1ccc2ncnc(N3CCNCC3)c2c1` | 3981 | falling, single point |
| `c1ccc(CNc2nc(-c3ccc4c(c3)OCO4)nc3ccccc23)cc1` | 19952 | falling, single point |
| `N#CCCCC[N+]12CN3CN(CN(C3)C1)C2` | 3981 | falling, single point |
| `COc1cc2[nH]c(=O)n(CCCCCC(=O)N3CCN(c4ccccc4)CC3)c(=O)c2cc1OC` | 1259 | falling, full curve, poor fit |

From PubChem BioAssay record AID912 (NCATS, 2007).